From PubChem BioAssay AID493014 (National Center for Advancing Translational Sciences (NCATS), 2011) come the findings set out here.

This assay in a line: qHTS Assay to Find Inhibitors of Chronic Active B-Cell Receptor Signaling. The conditions noted are these: ABC-DLBCL IkBa-CBG/CBR reporter, luminescence ratio (green luciferase fused to IkBa over red control in TMD8 lymphoma cells), 4 h. The method, boiled down: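 Cell line TMD8 (human ABC DLBCL), stably expressing tet-inducible CBG68-IkBa fusion and CBR; IMDM/0.5% FBS; cpd up to 46 uM; dox induction, 4 h, 37C/5% CO2; dual luminescence; green/red ratio; MG132 control.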
Background: qHTS replaces the single test concentration by a dilution series.

Where [1] appears, read: measured here: CBR red luminescence, cell number.
The mark [2] stands for this setting: measured here: IkBa-CBG green luminescence.

Some of the results follow. Further columns of the screen follow, without active or inactive calls. Compounds called inactive in the main read-out are mostly missing here. The note in brackets gives the kind of curve behind each potency; many fits are weak.

One may read the AC50 as the concentration giving half of the maximal activity seen. As to `CCC(Sc1nc2ccsc2c(=O)n1-c1ccc(Cl)c(C)c1)C(=O)NCc1ccco1` (centres undefined), the concentration at half-maximal activity (AC50) reads like this: under setting [1], 18.4 µM [falling, single point]; under setting [2], 20.6 µM [rising, partial curve, poor fit].
For the molecule `Cc1ccc(NC(=O)CCC(=O)NNC(=S)Nc2ccc(F)cc2F)cc1C`, the AC50 under setting [1] was 14.1 µM [falling, partial curve, poor fit].
`Nc1ccc2nc(-c3ccc(N)c(Cl)c3)[nH]c2c1`: the AC50 under setting [1] was 11.6 µM [falling, partial curve].
Take `C=CCn1c(SCC(N)=O)nnc1-c1cc2c(s1)CCC(CC)C2` (centres undefined): the AC50 under setting [1] was 0.411 µM [rising, full curve, poor fit].
On to `COc1cc(OC)c2c(c1)S(=O)(=O)C(c1ccccc1)=C2N`, for which the half-maximal activity concentration (AC50) under setting [1] was 2.24 µM [rising, full curve, poor fit].
With `O=C(CN1C(=O)C2CC=CCC2C1=O)Nc1nc2ccc(F)cc2s1` (centres undefined), the AC50 reads like this: under setting [1], 35.5 µM [falling, single point]; under setting [2], 5.62 µM [rising, full curve, poor fit].
For `COC(=O)Cn1c(=NC(=O)c2ccc(Cl)s2)sc2cc(F)ccc21`, the AC50 under setting [1] was 0.461 µM [rising, full curve].
For `Cc1ccc(/C=N/Nc2ccccn2)s1`, the AC50 under setting [1] is 0.708 µM [rising, full curve, poor fit].
Take `CCn1c(CSc2nc3ccccc3[nH]2)n[nH]c1=S`: under setting [1], the concentration at half-maximal activity (AC50) was 6.51 µM [falling, single point].
On the same count and under the same terms, next, `O=c1[nH]nc(CNc2ccc(C(F)(F)F)cc2)c2ccccc12`: 1.78 µM [rising, full curve, poor fit]; `O=C1NCC(COc2cccc3ccccc23)O1` (centres undefined): 12.6 µM [falling, partial curve, poor fit].
On to `COc1cc(C(=O)N/N=C(\C)c2ccc3c(c2)OCO3)cc(OC)c1OC`, for which the half-maximal activity concentration (AC50) runs as follows: under setting [1], 6.31 µM [rising, full curve]; under setting [2], 8.91 µM [falling, partial curve].
As to `CCCOc1cccc(C(=O)Nc2ccccc2C(=O)N2CCN(C)CC2)c1`, the AC50 under setting [1] was 10 µM [rising, partial curve].
Consider `Cc1ccc(F)cc1NC(=O)CCOc1ccccc1`, for which the AC50 under setting [1] was 20 µM [falling, partial curve, poor fit].
On to `COc1cc(CCCN2C(N)=NC[C@@H]2c2ccccc2)cc(OC)c1OC`, for which, under setting [1], the AC50 was 6.31 µM [falling, single point].
As for `CCn1c(SCC(=O)NNC(=O)Cc2ccccc2)nnc1-c1ccccc1`, the AC50 under setting [1] was 3.98 µM [falling, single point].
Regarding `CCOC(=O)CSC1=NC(=O)/C(=C/c2ccc(OC)cc2)S1`, the concentration at half-maximal activity (AC50) under setting [1] is 29.1 µM [falling, single point].
On to `COc1ccc(OC)c(C(=O)N/N=C/c2ccccn2)c1`, for which the AC50 under setting [1] was 0.251 µM [rising, full curve, poor fit].
As to `C#CCOCCOCCOCCNc1nc(N2CCOCC2)nc(N2CCN(C(=O)[C@H]([C@@H](C)O)n3cc(CCCCN)nn3)CC2)n1`, the concentration at half-maximal activity (AC50) under setting [1] was 16.4 µM [rising, single point].
With `Cc1c(C#N)c2ccccc2n1CC(=O)NCc1cccnc1`, the AC50 under setting [1] is 29.1 µM [rising, single point].
For `O=C1Nc2ccccc2N(O)N1c1cc(-c2cccc(Cl)c2)no1`, the half-maximal activity concentration (AC50) under setting [1] was 1.03 µM [falling, full curve].
On the same count and under the same terms, then `O=C(Nc1ccc(OC(F)(F)F)cc1)c1[nH]ncc1[N+](=O)[O-]`, with 35.5 µM [falling, single point]; and `COc1ccc(CN(C)CC(=O)c2c(N)n(Cc3ccccc3)c(=O)n(C)c2=O)c(OC)c1`, with 6.51 µM [rising, single point]; and `CN1c2ccccc2C(O)=C(C(=O)Nc2ccccc2)S1(=O)=O`, with 12.6 µM [falling, partial curve].
Still for that read-out and setting: then `CCOCCCNC(=O)CSCc1nc(-c2ccc(SC)cc2)oc1C`, with 7.94 µM [rising, partial curve, poor fit]; and `Cc1cc(C)c[n+](CC(=O)c2ccc(-c3ccccc3)cc2)c1`, with 5.8 µM [falling, full curve, poor fit]; and `O=C(O)c1c2c(nc3ccccc13)/C(=C/c1cccc([N+](=O)[O-])c1)CCC2`, with 6.31 µM [rising, partial curve, poor fit].
Consider `CS(=O)(=O)N1CCN(c2ccccc2NC(=O)c2ccc(Cl)cc2)CC1`, for which, under setting [1], the AC50 is 1.84 µM [rising, full curve, poor fit].
In the case of `O=c1[nH][nH]c(-c2ccccc2O)c1C(C[N+](=O)[O-])c1ccc(Cl)cc1Cl` (centres undefined), the AC50 under setting [1] was 0.82 µM [falling, full curve].
Regarding `O=[N+]([O-])c1cccc(-c2noc3c2-c2nc(Cc4cccc5ccccc45)sc2CC3)c1`, the half-maximal activity concentration (AC50) under setting [1] was 4.11 µM [rising, full curve, poor fit].
Take `CCNC(=S)N/N=C(\C)c1cccc(C(F)(F)F)c1`: the half-maximal activity concentration (AC50) reads like this: under setting [1], 20 µM [falling, single point]; under setting [2], 31.6 µM [falling, single point].
For the molecule `COc1ccc(Cn2c(=O)[nH]c3cc(C(=O)NCCCN4CCCCCC4)ccc3c2=O)cc1`, the concentration at half-maximal activity (AC50) under setting [1] was 25.1 µM [rising, single point].
Consider `O=C(CNCCc1ccc(Cl)cc1Cl)NCc1ccco1`, for which, under setting [1], the concentration at half-maximal activity (AC50) is 0.1 µM [rising, full curve, poor fit].
Still for that read-out and setting: then `CCOc1ccc(C(=O)CN2CCN(S(=O)(=O)c3ccc(Br)cc3)CC2)cc1`, with 28.2 µM [falling, single point].
With `Cc1ccc(C(=O)NCc2ccc3c(c2)CCO3)cc1C`, the AC50 under setting [1] was 3.16 µM [rising, single point].
Turning to `CCN(CC)CCC(=O)Nc1cccc2c1C(=O)c1ccccc1C2=O`, the AC50 under setting [1] was 7.08 µM [falling, partial curve] and the concentration at half-maximal activity (AC50) under setting [2] is 10 µM [rising, partial curve, poor fit].
As for `S=C(Nc1ccc(Br)cc1Cl)Nn1cnnc1`, the AC50 under setting [1] is 17.8 µM [rising, single point].
Take `COc1ccc(-c2cc3nc(C)c(CCC(=O)NCc4ccc(F)cc4)c(C)n3n2)c(OC)c1`: the half-maximal activity concentration (AC50) under setting [1] was 0.562 µM [falling, full curve, poor fit].
As for `O=C(CSc1nc2ccccc2c(=O)n1-c1ccc(OC(F)F)cc1)NCc1cccs1`, the half-maximal activity concentration (AC50) under setting [1] is 5.8 µM [falling, full curve].
Same read-out and setting: next, `CNC(=S)N/N=C/c1c(C)nn(-c2cccc(Cl)c2)c1Cl`: 0.517 µM [rising, full curve, poor fit]; `COc1ccccc1-c1cc(C(F)(F)F)nc(S(=O)(=O)CCCC(=O)NCc2ccc(F)cc2)n1`: 8.91 µM [falling, partial curve]; `CCOC(=O)c1ccccc1NC(=O)CSc1cccc[n+]1[O-]`: 31.6 µM [falling, single point].
`O=C(Nc1ccc2ccccc2n1)c1ccccc1Br`: the half-maximal activity concentration (AC50) under setting [1] was 0.708 µM [falling, full curve].
On to `O=C(Nc1ccc(Cl)cc1)ON=C1CCCC1`, for which the AC50 under setting [1] was 3.66 µM [rising, full curve, poor fit].
For `O=C(Cn1cc(SCc2ccc(Cl)cc2)c2ccccc21)N1CCOCC1`, the half-maximal activity concentration (AC50) under setting [1] was 16.4 µM [falling, single point].
With `CC(CCc1ccccc1)NCc1ccncc1` (centres undefined), the concentration at half-maximal activity (AC50) under setting [1] is 6.51 µM [rising, single point].
On to `CC(=O)Oc1ccc2c(=O)c(-c3nc4ccccc4s3)coc2c1`, for which, under setting [1], the concentration at half-maximal activity (AC50) was 2.82 µM [falling, partial curve].
Same read-out and setting: next, `S=C(Nc1ccc(Oc2ccccc2)cc1)NC1CCCCCC1`: 20.6 µM [falling, single point]; `O=C(O)c1ccc(COc2ccc(CO)cc2Cl)cc1`: 23.1 µM [falling, partial curve]; `Cc1nn(C(C)C(=O)NC2C(=O)N3C(C(=O)O)=C(CSc4nnnn4C)CSC23)cc1Cl` (centres undefined): 35.5 µM [falling, single point].
As for `N#Cc1cc2c(nc1SCc1ccc(Cl)cc1)CCCC2`, the concentration at half-maximal activity (AC50) under setting [1] was 5.17 µM [falling, full curve].
For `CC(NC(=O)c1ccc(-c2cc(C(F)(F)F)ccc2Cl)o1)c1ccccc1` (centres undefined), the AC50 under setting [1] was 29.1 µM [falling, single point].
In the case of `CN(C)c1ccc(Nc2ccc([N+](=O)[O-])cn2)cc1`, under setting [1], the AC50 was 2.51 µM [rising, partial curve, poor fit].
As to `CC1CCC2(CC1)NC(=O)N(CC(=O)Nc1cccnc1Cl)C2=O` (centres undefined), the AC50 under setting [1] is 2.31 µM [rising, partial curve, poor fit].
Regarding `CN(C)CCNc1ncnc2sc(-c3ccccc3)cc12`, the half-maximal activity concentration (AC50) under setting [1] was 35.5 µM [falling, single point].
On to `O=C1CCCC(O)=C1N=Nc1ccc(C(=O)O)cc1`, for which the AC50 under setting [1] is 12.6 µM [falling, partial curve, poor fit].
On to `O=C(CSc1ccc(-c2ccc(F)cc2)nn1)N1CCCc2ccccc21`, for which, under setting [1], the AC50 is 29.1 µM [falling, partial curve, poor fit].
As to `Fc1ccc(-c2nc3n(n2)Cc2ccccc2-3)cc1`, under setting [1], the AC50 was 18.4 µM [falling, single point].
Consider `CCCS(=O)(=O)n1nc(-c2ccccc2)cc1N`, for which the AC50 under setting [1] is 6.51 µM [rising, partial curve, poor fit].
For the molecule `S=C(NCCCc1ccccc1)Nc1ccc(Cl)cc1`, the AC50 under setting [1] was 0.366 µM [rising, full curve, poor fit].
With `Cc1ccc(S(=O)(=O)/N=C2/C=C(Sc3ncn[nH]3)C(=O)c3ccccc32)cc1`, the AC50 under setting [1] was 5.8 µM [falling, full curve].
On to `COCc1cc(=O)n2[nH]c(C)cc2n1`, for which, under setting [1], the AC50 was 35.5 µM [rising, single point].
For `O=C(CC(=O)Nc1cccc(F)c1)Nc1cccc(F)c1`, under setting [1], the concentration at half-maximal activity (AC50) is 35.5 µM [rising, single point].
On to `COc1cc2c(cc1OC)C(SC)=NC1(CCCC1)C2`, for which the AC50 under setting [2] is 35.5 µM [falling, single point].
